The source of these data is publication PMC8572224.

The chains behind the UniProt entries cited, without tags or fusion partners.
UniProt Q96PU5: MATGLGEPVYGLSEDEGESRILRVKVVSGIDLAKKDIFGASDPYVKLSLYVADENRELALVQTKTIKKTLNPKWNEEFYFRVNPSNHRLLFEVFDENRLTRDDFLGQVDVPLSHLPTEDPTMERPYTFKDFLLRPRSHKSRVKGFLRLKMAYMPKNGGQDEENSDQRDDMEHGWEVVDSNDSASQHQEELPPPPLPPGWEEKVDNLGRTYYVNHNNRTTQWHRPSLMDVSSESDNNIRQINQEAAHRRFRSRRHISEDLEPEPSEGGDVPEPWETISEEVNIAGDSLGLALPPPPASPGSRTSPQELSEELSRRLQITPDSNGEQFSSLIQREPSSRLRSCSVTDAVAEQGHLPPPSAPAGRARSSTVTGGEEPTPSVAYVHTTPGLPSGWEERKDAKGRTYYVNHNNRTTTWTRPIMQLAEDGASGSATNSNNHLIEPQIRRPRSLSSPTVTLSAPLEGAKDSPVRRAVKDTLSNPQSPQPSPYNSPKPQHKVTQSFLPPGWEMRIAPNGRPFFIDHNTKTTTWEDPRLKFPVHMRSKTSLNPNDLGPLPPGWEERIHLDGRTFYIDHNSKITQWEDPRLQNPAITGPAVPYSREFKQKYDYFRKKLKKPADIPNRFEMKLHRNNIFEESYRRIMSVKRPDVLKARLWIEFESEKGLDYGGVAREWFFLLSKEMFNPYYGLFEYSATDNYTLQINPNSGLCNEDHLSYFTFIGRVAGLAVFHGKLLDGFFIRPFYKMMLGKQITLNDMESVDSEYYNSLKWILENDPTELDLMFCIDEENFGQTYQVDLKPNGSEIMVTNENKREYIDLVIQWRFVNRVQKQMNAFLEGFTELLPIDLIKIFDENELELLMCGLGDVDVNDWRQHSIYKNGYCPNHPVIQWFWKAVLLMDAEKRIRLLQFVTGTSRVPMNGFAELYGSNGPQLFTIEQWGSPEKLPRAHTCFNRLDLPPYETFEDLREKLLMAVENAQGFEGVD

The assay addresses Neural precursor cell expressed developmentally downregulated 4-like (NEDD4L), endogenous (human (endogenous in A549, H1299, SPC-A1)) (UniProt Q96PU5). The experiment in a line: co-IP; endogenous proteins in lysates of A549, H1299 and SPC-A1 cells; antibody used to precipitate not given.

Results are given in words; binding and its absence hold for the method and conditions named. Binding seen in cells or lysates may run through a third protein. Some results given as binding are weak or reduced against the parent protein; the word gives no strength.

B1: CPNE1 (copine 1), endogenous (protein, UniProt Q99829 1-537)
chain: MAHCVTLVQLSISCDHLIDKDIGSKSDPLCVLLQDVGGGSWAELGRTERVRNCSSPEFSKTLQLEYRFETVQKLRFGIYDIDNKTPELRDDDFLGGAECSLGQIVSSQVLTLPLMLKPGKPAGRGTITVSAQELKDNRVVTMEVEARNLDKKDFLGKSDPFLEFFRQGDGKWHLVYRSEVIKNNLNPTWKRFSVPVQHFCGGNPSTPIQVQCSDYDSDGSHDLIGTFHTSLAQLQAVPAEFECIHPEKQQKKKSYKNSGTIRVKICRVETEYSFLDYVMGGCQINFTVGVDFTGSNGDPSSPDSLHYLSPTGVNEYLMALWSVGSVVQDYDSDKLFPAFGFGAQVPPDWQVSHEFALNFNPSNPYCAGIQGIVDAYRQALPQVRLYGPTNFAPIINHVARFAAQAAHQGTASQYFMLLLLTDGAVTDVEATREAVVRASNLPMSVIIVGVGGADFEAMEQLDADGGPLHTRSGQAAARDIVQFVPYRRFQNAPREALAQTVLAEVPTQLVSYFRAQGWAPLKPLPPSAKDPAQAPQA
Consider B1, for which the binding entry is “binds”.
